Laboratory results taken from patent US20240402193A1.
Results are given in words; binding and its absence hold for the method and conditions named. Some results given as binding are weak or reduced against the parent protein; the word gives no strength.

Protein sequences, listed by entry. Tags and fused reporters are not part of them. Lines headed by an entry give the natural chain unless they say otherwise; changes in a name come on top.
UniProt P10636: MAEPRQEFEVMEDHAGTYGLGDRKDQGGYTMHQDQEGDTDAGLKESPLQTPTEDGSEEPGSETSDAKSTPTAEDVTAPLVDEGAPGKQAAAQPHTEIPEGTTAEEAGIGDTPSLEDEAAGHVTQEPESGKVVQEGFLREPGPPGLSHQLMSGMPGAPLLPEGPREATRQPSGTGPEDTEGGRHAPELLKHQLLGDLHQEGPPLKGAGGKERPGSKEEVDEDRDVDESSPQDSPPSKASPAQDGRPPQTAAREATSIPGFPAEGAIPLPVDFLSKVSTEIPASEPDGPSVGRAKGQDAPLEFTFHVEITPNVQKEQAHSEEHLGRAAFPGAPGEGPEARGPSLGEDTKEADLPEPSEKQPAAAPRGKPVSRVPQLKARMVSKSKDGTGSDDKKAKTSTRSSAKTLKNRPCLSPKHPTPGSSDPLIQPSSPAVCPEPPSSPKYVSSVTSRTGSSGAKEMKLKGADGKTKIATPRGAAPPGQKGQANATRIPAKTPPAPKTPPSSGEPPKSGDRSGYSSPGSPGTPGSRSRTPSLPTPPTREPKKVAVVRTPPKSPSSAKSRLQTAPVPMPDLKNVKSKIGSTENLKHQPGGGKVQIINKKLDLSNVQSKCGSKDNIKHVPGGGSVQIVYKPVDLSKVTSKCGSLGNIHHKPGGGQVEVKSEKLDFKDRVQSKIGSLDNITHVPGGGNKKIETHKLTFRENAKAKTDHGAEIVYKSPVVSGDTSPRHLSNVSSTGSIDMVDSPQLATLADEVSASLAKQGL

Target: purified recombinant tau protein (positive control) (human) (UniProt P10636)
Assay: sandwich lateral flow immunoassay, AB 6-18 immobilised on the test line, AB 157-168 on 150 nm gold nano-shells (FIG. 8A)

binding: binds
B1: anti-tau antibody that binds to epitope 6-18 (AB 6-18) (antibody, mouse IgG1, kappa, V domains shown)
VH: EVQLVESGEDLVKPGGSLKLSCVASGFAFSSYGMSWVRQTPDMRLEWVATISSSGSRTYFPDSVKGRLTISRDNDKNILYLQMSSLRSEDTAMYYCTITWDGAMDYWGRGISVTVSS
VL: DVLMTQTPLSLAVNLGDQASLSCRSSQTILHSNGNTYLEWYLQKPGQSPRLLIYKVSKRFSGVPDRFSGSGSGTDFTLKISRVEADDLGIYYCFQGSLVPWAFGGGTKLEIKR
